In article PMC12670160, “A drug-repurposing screen of FDA- and EMA-approved drugs identifies two NF-κB inhibitors active against eumycetoma” (Journal of Antimicrobial Chemotherapy, 2025):
Hit rate of the full screen: of about 5,300 compounds, about 130 (2.5%) showed an effect of 50% or more. The list shows a part of the results.

Tested on: M. mycetomatis strain mm55
Details: primary screen, metabolic activity vs growth control; 96 h, 2 µM; inhibitor

Row | Structure (SMILES) | % viability
1 | C(#Cc1nc2ncccc2nc1OCCN1CCCC1)c1ccccc1 [ONC0002542, gk921] | 70.43%
2 | NC(=O)[C@H]1CCS[C@@H]2C[C@]3(CCCN3C(=O)Cc3ccc(NC(=O)COc4ccc(Cl)cc4Cl)cc3)C(=O)N12 [ONC0001082, st 2825] | 47.43%
3 | CN[C@@H](C)C(=O)N[C@H](C(=O)N1CCC[C@H]1C(=O)Nc1sc(-c2ncco2)nc1-c1ccccc1)C1CCCCC1 [ONC0002073, cudc427] | 73.98%
4 | O=C(O)c1ccccc1 [ONC0003100, benzoic acid] | 90.48%
5 | CCN1CCC[C@H]1CNC(=O)c1c(O)c(Cl)cc(Cl)c1OC [ONC0001688, raclopride] | 65.21%
6 | O=C(O)c1cccnc1C(=O)O [ONC0003619, quinolinicacid] | 57.36%
7 | CCn1c(=O)/c(=C2\Sc3ccccc3N2C)s/c1=C\c1cccc[n+]1CC [ONC0004159, mkt077] | 98.24%
8 | COC(=O)[C@]12CCC(C)(C)C[C@H]1[C@H]1C(=O)C=C3[C@@]4(C)C=C(C#N)C(=O)C(C)(C)[C@@H]4CC[C@@]3(C)[C@]1(C)CC2 [ONC0004385, bardoxolone methyl] | 103.2%
9 | CCCCC[C@H](O)/C=C/[C@H]1[C@H](O)CC(=O)[C@@H]1CCCCCCC(=O)O [ONC0003024, alprostadil] | 66.38%
10 | CC(=O)Nc1ccc(C(=O)O)cc1 [ONC0000516, acedoben] | 86.61%
11 | CC1(C)CNc2cc(NC(=O)c3cccnc3NCc3ccncc3)ccc21 [ONC0002099, motesanib] | 65.5%
12 | CN[C@@H](C)C(=O)N[C@H]1CCCC[C@H]2CCC(C(=O)N[C@@H](c3ccccc3)c3cn(CCCCc4ccc(CCCCn5cc([C@@H](NC(=O)[C@@H]6CC[C@@H]7CCCC[C@H](NC(=O)[C@H](C)NC)C(=O)N76)c6ccccc6)nn5)cc4)nn3)N2C1=O (stereo partly drawn) [ONC0003931, sm164] | 63.69%
13 | Cn1cc(-c2[nH]c3cc(NC(=O)[C@H](N)C4CCCCC4)cc4c3c2C=NNC4=O)cn1 [ONC0000230, pf477736] | 65.6%
14 | C=C[C@@]1(C)CC(=O)[C@@]2(O)[C@](C)(O1)[C@@H](OC(C)=O)[C@@H](O)C1C(C)(C)CC[C@H](O)[C@@]12C (stereo partly drawn) [ONC0002365, colforsin] | 68.17%
15 | COC(=O)C1=C(C)NC(C)=C(C(=O)OCC(C)C)C1c1ccccc1[N+](=O)[O-] (stereo not drawn) [ONC0001302, nisoldipine] | 76.31%

Looked up by structure from the entries so far, 2 records:
Row | Structure (SMILES) | % viability
9 | CCCCC[C@H](O)/C=C/[C@H]1[C@H](O)CC(=O)[C@@H]1CCCCCCC(=O)O [ONC0003024, alprostadil] | 66.38%
8 | COC(=O)[C@]12CCC(C)(C)C[C@H]1[C@H]1C(=O)C=C3[C@@]4(C)C=C(C#N)C(=O)C(C)(C)[C@@H]4CC[C@@]3(C)[C@]1(C)CC2 [ONC0004385, bardoxolone methyl] | 103.2%
